Reference: PubChem BioAssay AID1259254 (NCATS, 2017)
Test: 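Finding genes that stop cells copying their DNA twice in one cycle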 (primary screen). Cell system: human HCT116 colorectal cancer cells. Reagent: single siRNA against human genes. Timing: 3 days. Measured: 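Imaged Hoechst DNA stain sorts each cell into a cycle phase by DNA amount; per plate, G2 fraction set to 0% for non-targeting and 100% for GMNN siRNA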. Direction: G2 robust z-score and G2 cells, % of GMNN control: higher = more G2 cells, more excess DNA replication; raw share of cells in G2: higher = larger share of cells with G2 DNA content. Hit rule: 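Active siRNAs have a G2 robust z of 5 or more median absolute deviations over the median, which in these data means about 38% or higher of GMNN control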.
The deposit covers about 59,000 reagents; below is a random part of them. About 1,550 of them (2.6%) count as active. 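G2 share is only a proxy for re-replication; each gene was hit by three separate siRNAs, and active genes were retested.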 Raw values are not corrected between plates. Reagents against one gene are numbered here. The record does not give: the amount of reagent.

The opening 2 records, to show the layout:
target	siRNA no.	G2 robust z-score	G2 cells, % of GMNN control	raw share of cells in G2 (%)	activity call
TMOD2	1	-0.24	1.28	4.34	inactive
TMOD2	2	-0.0065	2.92	5.65	inactive

The listing, repeating the preview:
target	siRNA no.	G2 robust z-score	G2 cells, % of GMNN control	raw share of cells in G2 (%)	activity call
TMOD2	1	-0.24	1.28	4.34	inactive
TMOD2	2	-0.0065	2.92	5.65	inactive
TMOD2	3	1.43	13	7.37	inactive
DGLUCY	1	0.332	5.3	6.65	inactive
DGLUCY	2	1.54	13.8	10.3	inactive
DGLUCY	3	3.49	27.5	9.91	inactive
RNPS1	1	-0.0368	2.71	4.72	inactive
RNPS1	2	0.872	9.11	10.1	inactive
RNPS1	3	-0.123	2.1	6.61	inactive
H4C12	1	0.89	9.23	7.77	inactive
H4C12	2	-0.438	-0.115	3.29	inactive
H4C12	3	1.25	11.8	7.8	inactive
LIN28A	1	0.835	8.84	9.11	inactive
LIN28A	2	-1.24	-5.77	2.65	inactive
LIN28A	3	-0.22	1.42	4.71	inactive
KCNN1	1	-1.24	-5.79	3.18	inactive
KCNN1	2	-0.378	0.305	4.88	inactive
KCNN1	3	-0.159	1.85	5.1	inactive
ATP6V0A4	1	0.448	6.12	6.15	inactive
ATP6V0A4	2	0.701	7.9	9.54	inactive
ATP6V0A4	3	-1.53	-7.81	1.36	inactive
TAS2R7	1	6.17	46.4	21.6	active
TAS2R7	2	-0.682	-1.83	3.86	inactive
TAS2R7	3	-1.35	-6.56	1.19	inactive
TEX101	1	1.25	11.8	8.03	inactive
TEX101	2	-0.474	-0.37	3.35	inactive
TEX101	3	-0.524	-0.72	2.19	inactive
AGPAT1	1	-0.4	0.155	5.76	inactive
AGPAT1	2	-0.559	-0.965	6.1	inactive
AGPAT1	3	0.0435	3.27	4.9	inactive
LOC644686 (retired record)	1	-0.784	-2.55	2.67	inactive
LOC644686 (retired record)	2	5.05	38.5	17.1	active
LOC644686 (retired record)	3	-0.0253	2.79	3.96	inactive
SELENOS	1	0.107	3.72	5.95	inactive
SELENOS	2	-0.145	1.95	4.95	inactive
SELENOS	3	0.227	4.56	4.59	inactive
SEC11C	1	1.01	10.1	9.86	inactive
SEC11C	2	-0.961	-3.79	3.23	inactive
SEC11C	3	-0.475	-0.374	4.12	inactive
ZNF426	1	-0.75	-2.31	1.98	inactive
ZNF426	2	2.3	19.2	14.6	inactive
ZNF426	3	0.0353	3.22	4.64	inactive
H4C8	1	-0.254	1.18	5.65	inactive
H4C8	2	0.505	6.52	6.48	inactive
H4C8	3	0.388	5.69	5.36	inactive
QPCTL	1	1.91	16.4	13.4	inactive
QPCTL	2	-0.0882	2.35	5.11	inactive
QPCTL	3	-0.472	-0.353	3.67	inactive
